Source: publication PMC12667536
These are yes or no findings as the source states them, for the method shown. In cells and extracts the contact can be indirect. Here binding means that the protein was enriched with, or labelled near, the bait; the list need not be complete. Sequences can lack the tags named with a protein.

Chains of the proteins cited; added tags and fusions are not shown. Lines headed by an entry give the natural chain unless they say otherwise; changes in a name come on top. Residues count along the entry.
UniProt P05556: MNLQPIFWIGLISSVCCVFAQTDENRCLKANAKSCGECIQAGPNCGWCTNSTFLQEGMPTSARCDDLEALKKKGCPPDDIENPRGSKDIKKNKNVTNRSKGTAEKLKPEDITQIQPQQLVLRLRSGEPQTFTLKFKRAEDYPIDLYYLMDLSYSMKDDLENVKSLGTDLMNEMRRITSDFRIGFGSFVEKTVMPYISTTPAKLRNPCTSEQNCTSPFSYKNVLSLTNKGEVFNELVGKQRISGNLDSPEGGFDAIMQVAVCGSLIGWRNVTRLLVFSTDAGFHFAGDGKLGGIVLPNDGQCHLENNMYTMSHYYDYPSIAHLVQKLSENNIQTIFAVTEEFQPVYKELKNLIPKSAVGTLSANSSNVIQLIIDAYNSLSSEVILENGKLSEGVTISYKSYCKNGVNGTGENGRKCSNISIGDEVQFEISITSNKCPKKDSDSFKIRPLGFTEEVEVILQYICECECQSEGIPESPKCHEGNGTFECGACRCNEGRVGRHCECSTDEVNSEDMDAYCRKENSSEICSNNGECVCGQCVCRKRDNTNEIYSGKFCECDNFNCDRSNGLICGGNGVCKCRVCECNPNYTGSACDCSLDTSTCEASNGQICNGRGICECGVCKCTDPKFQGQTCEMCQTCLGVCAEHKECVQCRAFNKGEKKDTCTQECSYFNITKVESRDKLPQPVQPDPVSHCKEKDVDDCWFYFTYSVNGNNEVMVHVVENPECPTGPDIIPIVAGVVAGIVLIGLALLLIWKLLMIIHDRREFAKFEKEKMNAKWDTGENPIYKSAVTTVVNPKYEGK
UniProt P15311: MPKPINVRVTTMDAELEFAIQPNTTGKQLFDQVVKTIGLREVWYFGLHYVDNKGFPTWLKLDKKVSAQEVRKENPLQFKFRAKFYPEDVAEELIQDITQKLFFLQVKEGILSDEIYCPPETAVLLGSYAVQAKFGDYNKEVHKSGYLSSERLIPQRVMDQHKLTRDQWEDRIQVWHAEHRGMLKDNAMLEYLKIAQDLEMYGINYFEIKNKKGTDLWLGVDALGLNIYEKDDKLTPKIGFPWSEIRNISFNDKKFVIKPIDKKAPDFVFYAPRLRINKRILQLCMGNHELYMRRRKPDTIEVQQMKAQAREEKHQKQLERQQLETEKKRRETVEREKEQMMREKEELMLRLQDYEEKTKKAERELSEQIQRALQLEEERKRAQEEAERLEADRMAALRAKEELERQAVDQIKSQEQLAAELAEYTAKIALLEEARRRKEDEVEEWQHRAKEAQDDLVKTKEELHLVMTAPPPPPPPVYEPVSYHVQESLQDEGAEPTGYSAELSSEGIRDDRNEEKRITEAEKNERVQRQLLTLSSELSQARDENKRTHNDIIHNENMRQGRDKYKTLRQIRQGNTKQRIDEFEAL
UniProt Q8IUD2: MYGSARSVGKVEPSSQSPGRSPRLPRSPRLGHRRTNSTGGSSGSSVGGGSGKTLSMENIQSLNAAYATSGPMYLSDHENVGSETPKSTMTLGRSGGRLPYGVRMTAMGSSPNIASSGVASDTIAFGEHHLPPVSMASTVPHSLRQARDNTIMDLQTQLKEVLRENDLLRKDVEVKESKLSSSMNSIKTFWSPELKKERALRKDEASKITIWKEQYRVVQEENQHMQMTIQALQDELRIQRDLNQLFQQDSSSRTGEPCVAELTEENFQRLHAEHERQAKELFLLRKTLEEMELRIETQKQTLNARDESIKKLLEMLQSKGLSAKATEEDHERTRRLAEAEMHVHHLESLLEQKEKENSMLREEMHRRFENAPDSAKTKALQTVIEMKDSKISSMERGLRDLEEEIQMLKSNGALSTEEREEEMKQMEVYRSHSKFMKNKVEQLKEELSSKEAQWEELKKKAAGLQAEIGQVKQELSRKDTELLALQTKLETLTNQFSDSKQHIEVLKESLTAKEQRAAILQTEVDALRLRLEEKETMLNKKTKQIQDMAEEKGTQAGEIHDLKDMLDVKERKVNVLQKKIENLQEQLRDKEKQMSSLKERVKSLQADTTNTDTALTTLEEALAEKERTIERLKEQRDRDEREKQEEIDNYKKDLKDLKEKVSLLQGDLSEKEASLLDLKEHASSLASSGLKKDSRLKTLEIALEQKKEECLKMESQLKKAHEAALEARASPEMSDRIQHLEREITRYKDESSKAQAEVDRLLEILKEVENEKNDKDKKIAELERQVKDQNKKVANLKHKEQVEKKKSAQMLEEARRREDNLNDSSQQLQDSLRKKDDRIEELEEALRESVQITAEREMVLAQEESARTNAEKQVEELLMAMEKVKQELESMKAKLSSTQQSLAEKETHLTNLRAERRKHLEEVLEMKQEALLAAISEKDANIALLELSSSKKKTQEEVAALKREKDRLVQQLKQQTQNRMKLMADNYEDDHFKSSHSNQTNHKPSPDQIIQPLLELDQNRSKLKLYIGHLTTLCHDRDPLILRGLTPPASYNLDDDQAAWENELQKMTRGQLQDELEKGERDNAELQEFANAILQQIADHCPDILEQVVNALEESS
UniProt P16070, residues 21-742: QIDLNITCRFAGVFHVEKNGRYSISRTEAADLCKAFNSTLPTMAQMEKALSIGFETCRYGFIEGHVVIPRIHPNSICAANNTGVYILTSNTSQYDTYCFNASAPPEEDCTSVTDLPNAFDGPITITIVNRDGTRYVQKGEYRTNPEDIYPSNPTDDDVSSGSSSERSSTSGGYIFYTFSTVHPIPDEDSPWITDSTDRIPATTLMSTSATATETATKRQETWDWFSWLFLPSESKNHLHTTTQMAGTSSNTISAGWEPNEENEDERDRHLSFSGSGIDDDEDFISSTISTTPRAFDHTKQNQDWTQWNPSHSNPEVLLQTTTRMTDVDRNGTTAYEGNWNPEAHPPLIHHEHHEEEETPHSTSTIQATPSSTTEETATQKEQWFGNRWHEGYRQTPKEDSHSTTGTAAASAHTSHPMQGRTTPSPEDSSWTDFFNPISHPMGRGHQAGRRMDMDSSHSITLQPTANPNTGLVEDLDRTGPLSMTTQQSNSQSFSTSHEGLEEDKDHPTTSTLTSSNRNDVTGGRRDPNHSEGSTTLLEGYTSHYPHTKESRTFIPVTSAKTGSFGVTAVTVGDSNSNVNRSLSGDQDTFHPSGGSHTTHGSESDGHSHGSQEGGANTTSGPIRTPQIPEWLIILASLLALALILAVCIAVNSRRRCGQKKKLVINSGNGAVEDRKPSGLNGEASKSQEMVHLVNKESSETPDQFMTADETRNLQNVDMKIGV
UniProt P11166: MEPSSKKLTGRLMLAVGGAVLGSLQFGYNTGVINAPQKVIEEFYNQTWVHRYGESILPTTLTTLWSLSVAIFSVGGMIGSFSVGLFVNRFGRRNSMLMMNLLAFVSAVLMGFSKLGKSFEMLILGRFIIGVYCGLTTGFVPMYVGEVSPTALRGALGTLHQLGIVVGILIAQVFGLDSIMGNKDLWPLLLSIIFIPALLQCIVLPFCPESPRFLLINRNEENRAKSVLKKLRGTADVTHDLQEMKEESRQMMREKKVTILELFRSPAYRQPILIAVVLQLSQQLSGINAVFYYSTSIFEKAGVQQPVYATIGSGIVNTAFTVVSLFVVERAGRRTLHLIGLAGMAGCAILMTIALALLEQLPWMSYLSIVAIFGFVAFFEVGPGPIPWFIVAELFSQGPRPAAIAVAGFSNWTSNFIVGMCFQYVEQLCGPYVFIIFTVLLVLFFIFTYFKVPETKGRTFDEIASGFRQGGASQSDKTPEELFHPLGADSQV

T1: Flag-GCWT (wild type group-specific component protein, vitamin D binding protein) (UniProt P02774)
T1 sequence: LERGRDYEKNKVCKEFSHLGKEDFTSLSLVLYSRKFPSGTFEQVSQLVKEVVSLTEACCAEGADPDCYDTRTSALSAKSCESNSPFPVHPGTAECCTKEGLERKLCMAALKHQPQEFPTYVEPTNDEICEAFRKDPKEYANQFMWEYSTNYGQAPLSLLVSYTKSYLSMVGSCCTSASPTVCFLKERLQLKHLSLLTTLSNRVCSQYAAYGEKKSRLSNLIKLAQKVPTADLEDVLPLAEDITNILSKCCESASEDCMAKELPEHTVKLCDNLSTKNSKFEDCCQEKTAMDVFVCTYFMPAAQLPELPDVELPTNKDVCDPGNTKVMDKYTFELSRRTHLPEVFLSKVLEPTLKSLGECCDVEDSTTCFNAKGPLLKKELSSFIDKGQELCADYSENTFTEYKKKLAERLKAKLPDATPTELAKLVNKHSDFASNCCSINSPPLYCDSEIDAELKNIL

B1: EHD1 (protein, UniProt Q9H4M9 1-534)
chain: MFSWVSKDARRKKEPELFQTVAEGLRQLYAQKLLPLEEHYRFHEFHSPALEDADFDNKPMVLLVGQYSTGKTTFIRHLIEQDFPGMRIGPEPTTDSFIAVMHGPTEGVVPGNALVVDPRRPFRKLNAFGNAFLNRFMCAQLPNPVLDSISIIDTPGILSGEKQRISRGYDFAAVLEWFAERVDRIILLFDAHKLDISDEFSEVIKALKNHEDKIRVVLNKADQIETQQLMRVYGALMWSLGKIINTPEVVRVYIGSFWSHPLLIPDNRKLFEAEEQDLFKDIQSLPRNAALRKLNDLIKRARLAKVHAYIISSLKKEMPNVFGKESKKKELVNNLGEIYQKIEREHQISPGDFPSLRKMQELLQTQDFSKFQALKPKLLDTVDDMLANDIARLMVMVRQEESLMPSQVVKGGAFDGTMNGPFGHGYGEGAGEGIDDVEWVVGKDKPTYDEIFYTLSPVNGKITGANAKKEMVKSKLPNTVLGKIWKLADVDKDGLLDDEEFALANHLIKVKLEGHELPADLPPHLVPPSKRRHE
B2: ANXA1 (protein, UniProt P04083 1-346)
chain: MAMVSEFLKQAWFIENEEQEYVQTVKSSKGGPGSAVSPYPTFNPSSDVAALHKAIMVKGVDEATIIDILTKRNNAQRQQIKAAYLQETGKPLDETLKKALTGHLEEVVLALLKTPAQFDADELRAAMKGLGTDEDTLIEILASRTNKEIRDINRVYREELKRDLAKDITSDTSGDFRNALLSLAKGDRSEDFGVNEDLADSDARALYEAGERRKGTDVNVFNTILTTRSYPQLRRVFQKYTKYSKHDMNKVLDLELKGDIEKCLTAIVKCATSKPAFFAEKLHQAMKGVGTRHKALIRIMVSRSEIDMNDIKAFYQKMYGISLCQAILDETKGDYEKILVALCGGN

target: T1, Flag-GCWT (wild type group-specific component protein, vitamin D binding protein); assay: affinity purification with mass spectrometry; Flag-GCWT overexpression plasmid transfected into shGCWT Patu8988; immunoprecipitation with Flag antibody; liquid chromatography tandem mass spectrometry

binding, binds:
integrin β1 (ITGB1) (from UniProt P05556 21-798) (receptor)
EZR (from UniProt P15311 1-586)
ERC1 (from UniProt Q8IUD2 1-1116)
CD44 (from UniProt P16070 21-742) (receptor)
SLC2A1 (from UniProt P11166 1-492)
B1
B2
